## Screening data, single-dose tests

Chains of the proteins cited; added tags and fusions are not shown.
UniProt I6X8D2, whole entry: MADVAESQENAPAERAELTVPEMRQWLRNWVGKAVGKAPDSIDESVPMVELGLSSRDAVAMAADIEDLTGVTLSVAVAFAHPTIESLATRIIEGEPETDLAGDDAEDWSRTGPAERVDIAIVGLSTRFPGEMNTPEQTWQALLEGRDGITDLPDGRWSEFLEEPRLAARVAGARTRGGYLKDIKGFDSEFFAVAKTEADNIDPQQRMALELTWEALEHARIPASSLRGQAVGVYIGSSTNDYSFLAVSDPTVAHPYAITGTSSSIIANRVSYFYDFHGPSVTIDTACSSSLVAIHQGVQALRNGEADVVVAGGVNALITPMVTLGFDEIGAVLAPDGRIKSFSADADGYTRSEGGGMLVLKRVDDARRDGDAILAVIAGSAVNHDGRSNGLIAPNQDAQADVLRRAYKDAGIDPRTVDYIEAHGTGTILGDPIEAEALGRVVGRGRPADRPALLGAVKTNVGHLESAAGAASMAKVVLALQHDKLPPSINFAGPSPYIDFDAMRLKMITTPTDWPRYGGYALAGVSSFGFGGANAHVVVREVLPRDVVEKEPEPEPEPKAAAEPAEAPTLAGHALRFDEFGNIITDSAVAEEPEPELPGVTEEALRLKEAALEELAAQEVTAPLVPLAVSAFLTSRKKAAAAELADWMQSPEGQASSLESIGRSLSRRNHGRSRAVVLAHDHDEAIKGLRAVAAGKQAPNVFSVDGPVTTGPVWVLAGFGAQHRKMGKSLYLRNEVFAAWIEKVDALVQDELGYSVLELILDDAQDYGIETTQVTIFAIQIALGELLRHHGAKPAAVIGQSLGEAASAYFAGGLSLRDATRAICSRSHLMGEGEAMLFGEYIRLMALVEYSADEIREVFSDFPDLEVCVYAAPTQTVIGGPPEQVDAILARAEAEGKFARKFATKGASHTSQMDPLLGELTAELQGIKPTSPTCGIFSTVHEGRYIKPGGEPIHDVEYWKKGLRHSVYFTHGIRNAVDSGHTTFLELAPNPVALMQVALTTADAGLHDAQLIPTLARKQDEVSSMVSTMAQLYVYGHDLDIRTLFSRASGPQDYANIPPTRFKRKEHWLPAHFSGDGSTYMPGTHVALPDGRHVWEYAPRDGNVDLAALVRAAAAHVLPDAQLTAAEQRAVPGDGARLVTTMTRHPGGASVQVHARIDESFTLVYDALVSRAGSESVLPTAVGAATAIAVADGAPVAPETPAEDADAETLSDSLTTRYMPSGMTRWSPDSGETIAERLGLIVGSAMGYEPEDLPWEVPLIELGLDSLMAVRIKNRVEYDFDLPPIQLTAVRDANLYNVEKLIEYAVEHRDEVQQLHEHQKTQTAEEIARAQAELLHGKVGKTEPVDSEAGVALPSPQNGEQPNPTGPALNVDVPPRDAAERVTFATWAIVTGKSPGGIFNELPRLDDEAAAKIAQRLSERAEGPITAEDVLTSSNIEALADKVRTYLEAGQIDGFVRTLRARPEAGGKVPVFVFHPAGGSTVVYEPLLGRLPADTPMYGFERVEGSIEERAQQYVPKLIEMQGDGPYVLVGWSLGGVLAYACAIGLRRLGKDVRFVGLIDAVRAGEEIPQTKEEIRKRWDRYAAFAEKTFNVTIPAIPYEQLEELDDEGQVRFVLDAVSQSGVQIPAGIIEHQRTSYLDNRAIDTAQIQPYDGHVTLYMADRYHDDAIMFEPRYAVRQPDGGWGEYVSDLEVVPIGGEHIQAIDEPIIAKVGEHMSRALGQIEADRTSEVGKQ

Data taken from ChEMBL document CHEMBL3988442, “University of Dundee, Small-Polar-MMV Screening Library” (2021).

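Enzyme assay of the thioesterase domain of polyketide synthase 13; the read-out is not stated. Target: Polyketide synthase Pks13, Mycobacterium tuberculosis (UniProt I6X8D2). Tested at 30 µM. The record gives no direction; the compounds picked for IC50 retests had high values, so higher reads as stronger inhibition. Of about 67,000 compounds tested this way, about 300 (0.46%) reached 50% or more in at least one test.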

Each number is a percent effect as filed. How 0% and 100% were set is not recorded. Most values in the screen are low, and negative values occur. This is an unselected part of the compounds tested.

* Cc1cc(C(=O)N2CCC3(CC2)C(=O)N(C)CCN3CC2CC2)c(C)o1 : -2.702%
* O=C(O)C1(Oc2ccc3ccccc3c2)CCN(c2ccncc2)CC1 : -2.596%
* Cc1nc(-c2ccccc2)n(CC(=O)NC(C)C2CC2)n1 (centres unmarked) : -29.43%
* COc1ccc(CN2CC(O)CN(C(=O)OCC(C)C)CC2=O)cc1 (centres unmarked) : 17.67%
* CN1[C@@H](C(=O)NCC2CC2)C[C@H]2CN(Cc3ccsc3)C[C@H]21 : -47.35%
* CCc1ncnc2c1CCN(CCOC)CC2 : -7.934%
* Cc1cnn(CC2CCCCN2C(=O)c2sccc2C#N)c1 (centres unmarked) : -0.667%
* Cn1cc(CCNC(=O)NCc2nnc3n2CCC3)cn1 : -26.28%
* Cc1ccc(C(=O)N2CCC3(CCC(=O)N(CCN(C)C)C3)CC2)nc1 : -22.85%
* CCC(C)N(Cc1ccncc1)Cc1ccccc1Cn1cccn1 (centres unmarked) : -27.95%
* O=C1CCCN1CCN1CC[C@@]2(O)CCN(c3ncccn3)C[C@H]2C1 : -1.7%
* COCC(=O)Nc1ccc(-c2noc([C@@H]3CCCN3CC(C)C)n2)cn1 : 38.69%
* CNC(=O)CN(C)c1nc(-c2ccncc2)nc2c1CCN(C(C)=O)C2 : -5.296%
* CN(C)C(=O)NC1COC2(CCN(Cc3nccn3C)CC2)C1 (centres unmarked) : -17.38%
* CC1CCN(CCNC(=O)c2ccccc2N2CCOCC2)CC1 : -15.38%
* O=C(c1ccc(=O)[nH]n1)N1CCc2ccccc21 : -13.08%
* O=C1CC(c2cccs2)Cc2[nH]c(=O)c(C(=O)NC3CCCC3)cc21 (centres unmarked) : 3.493%
* Cc1ncsc1C(=O)N1CCC(c2ccc3c(NC(C)C)n[nH]c3n2)C1 (centres unmarked) : 4.662%
* CN(Cc1nccn1C)c1nccc(N2CCCC(O)C2)n1 (centres unmarked) : -10.09%
* CCNc1nc(C(=O)N(C)Cc2nc(CC)no2)cs1 : -4.935%
* COCc1cc(C[C@@H]2CC[C@H](O)[C@@H](CN(C)C)O2)no1 : -21.87%
* NC(=O)c1cc(C2CCCN(CCOCC(F)(F)F)C2)n[nH]1 (centres unmarked) : -7.882%
* CCOCc1cnc2n1CCN(C(=O)c1cccc3c1OCCO3)C2C (centres unmarked) : -15.04%
* Cn1cnc2c1C(C(=O)N1CCCC1)N(CC1CC1)CC2 (centres unmarked) : -0.2667%
* O=C(NCC(O)c1ccccc1Cl)c1cccc(-n2cnnn2)c1 (centres unmarked) : -9.972%
* CCCN1CC2(CCN(C)CC2)CC1C(=O)NCCn1cc(C)cn1 (centres unmarked) : -7.911%
* O=C(c1cc[nH]n1)N1CCCC1c1ccccn1 (centres unmarked) : 5.332%
* Cc1cc(C)n(CC2CCCCN2CC(=O)Nc2c(C)n[nH]c2C)n1 (centres unmarked) : -16.96%
* Cc1cc(SC(C)(C)C)ccc1NC(C)C(=O)NC(N)=O (centres unmarked) : -0.8615%
* O=S(=O)(c1ccc(F)cc1)N1CCCn2cnc(CN3CCCC3)c2C1 : -14.49%
* CC(=O)N1CC[C@H]2CC(=O)N(Cc3ccc4c(c3)OCO4)CC[C@H]2C1 : -33.29%
* Cc1ccc(NC2CCN(C(=O)c3cccc4cccnc34)CC2)nn1 : -8.711%
* CCCc1nc(CN(CC)C(=O)c2ccc3ncsc3c2)no1 : -9.778%

2 of the entries, repeated:

| structure | effect |
|---|---|
| `Cn1cnc2c1C(C(=O)N1CCCC1)N(CC1CC1)CC2` (centres unmarked) | -0.2667% |
| `COc1ccc(CN2CC(O)CN(C(=O)OCC(C)C)CC2=O)cc1` (centres unmarked) | 17.67% |